Laboratory results: PubChem BioAssay AID1259308 (NCATS, 2017)
This is one part, drawn at random, of about 59,000 deposited reagents. About 1,510 of all reagents (2.6%) count as active. 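Calls use total luciferase alone and ignore viability, so some active siRNAs may act by altering cell number.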 Unmarked entries are inactive. Reagents against one gene are numbered here. Not all columns of the deposit are shown.

Assay: 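Knock-downs that increase output of a recombinant reporter protein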 (primary screen)
Cell system: human HEK293 embryonic kidney cells stably expressing firefly luciferase (HEK-CMV-Luc2-Hygro)
Knock-down reagent: single siRNA against human genes, 0.8 pmol siRNA per well
Timing: 72 h
Measured: 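Luciferase light (ONE-Glo) measured on one replicate plate set and viability (CellTiter-Glo) on the other, scaled to a negative control siRNA, with robust z-scores and luciferase per cell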
Direction: total luciferase, z-score: higher = more reporter protein produced
Rule for the call: 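Active when the median/MAD z-score for overall luciferase is greater than 3; a gene was taken forward for validation with new siRNAs if at least two of its three siRNAs passed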
Calls: active = raised luciferase; inactive = no rise

CIMIP2B (ciliary microtubule inner protein 2B) #1 → total luciferase, z-score: 1.04
CIMIP2B (ciliary microtubule inner protein 2B) #2 → total luciferase, z-score: -0.284
CIMIP2B (ciliary microtubule inner protein 2B) #3 → total luciferase, z-score: -0.778
DDIT3 (DNA damage inducible transcript 3) #1 → total luciferase, z-score: 5.72 (active)
DDIT3 (DNA damage inducible transcript 3) #2 → total luciferase, z-score: 0.224
DDIT3 (DNA damage inducible transcript 3) #3 → total luciferase, z-score: -0.345
CATSPERG (catsper channel auxiliary subunit gamma) #1 → total luciferase, z-score: 1.25
CATSPERG (catsper channel auxiliary subunit gamma) #2 → total luciferase, z-score: 0.467
CATSPERG (catsper channel auxiliary subunit gamma) #3 → total luciferase, z-score: 0.265
RETNLB (resistin like beta) #1 → total luciferase, z-score: -0.467
RETNLB (resistin like beta) #2 → total luciferase, z-score: 0.634
RETNLB (resistin like beta) #3 → total luciferase, z-score: 0.227
TMEM200B (transmembrane protein 200B) #1 → total luciferase, z-score: 4.33 (active)
TMEM200B (transmembrane protein 200B) #2 → total luciferase, z-score: 0.693
TMEM200B (transmembrane protein 200B) #3 → total luciferase, z-score: -1.43
SHF (Src homology 2 domain containing F) #1 → total luciferase, z-score: -1.03
SHF (Src homology 2 domain containing F) #2 → total luciferase, z-score: 0.66
SHF (Src homology 2 domain containing F) #3 → total luciferase, z-score: -0.743
RNF183 (ring finger protein 183) #1 → total luciferase, z-score: -0.714
RNF183 (ring finger protein 183) #2 → total luciferase, z-score: -0.557
RNF183 (ring finger protein 183) #3 → total luciferase, z-score: 0.482

Laid out differently: results already given
{"Gene":"DDIT3 (DNA damage inducible transcript 3)","reagent no.":1,"total luciferase, z-score":"5.72 (active)"}
{"Gene":"DDIT3 (DNA damage inducible transcript 3)","reagent no.":2,"total luciferase, z-score":0.224}

Additional reagents:
AAMDC (adipogenesis associated Mth938 domain containing) #1 → total luciferase, z-score: -0.47
AAMDC (adipogenesis associated Mth938 domain containing) #2 → total luciferase, z-score: -0.182
AAMDC (adipogenesis associated Mth938 domain containing) #3 → total luciferase, z-score: 0.185
MTMR2 (myotubularin related protein 2) #1 → total luciferase, z-score: -1.02
MTMR2 (myotubularin related protein 2) #2 → total luciferase, z-score: -0.6
MTMR2 (myotubularin related protein 2) #3 → total luciferase, z-score: -0.967
HMX2 (H6 family homeobox 2) #1 → total luciferase, z-score: 0.308
HMX2 (H6 family homeobox 2) #2 → total luciferase, z-score: -1.22
HMX2 (H6 family homeobox 2) #3 → total luciferase, z-score: 1.15
PDE7B (phosphodiesterase 7B) #1 → total luciferase, z-score: 0.685
PDE7B (phosphodiesterase 7B) #2 → total luciferase, z-score: -2.05
PDE7B (phosphodiesterase 7B) #3 → total luciferase, z-score: 0.17
